From PubChem BioAssay AID256 (DTP/NCI, 2004)
The list shows only some results of the screen, not a fair sample: it gathers tests that were run many times, whatever their T/C, doses with no T/C, and many T/C values between a quarter and a half above the control. Other doses and runs of a compound stand elsewhere. T/C: endpoint of the treated group in % of that of the vehicle group. Some doses have a count of surviving animals in place of a T/C: the source holds a T/C of zero for them, seemingly a mark for toxic or unscored doses. Some doses without a T/C left all or most animals alive at the check, yet need not have been tolerated: the source hardly ever lists a survival T/C far under the control, and the zero likely stands for such cases as well. Counts of survivors are from the toxicity check (mostly the fifth day) where no day follows; animals may have died later. Schedules are NCI's codes, taken here to give the interval after Q, in days (D) or hours (H), and the number of doses after X. Some entries hold several experiments; their values stand side by side, smallest first. Marks such as (2×) give the number of equal values in this list. Where survival is the endpoint, the PubChem record calls one and a half times the control and up active, and a quarter to a half above the control has no call in these data; cut-offs in other NCI protocols can differ. Some T/C values carry the count of animals alive at the toxicity check (mostly the fifth day); where none is given, no animal had died by that day.

Tested on: CD2F1 mice, L1210 leukemia ip, survival T/C
Test: NCI In Vivo Anticancer Drug Screen. Data for tumor model L1210 Leukemia (intraperitoneal) in CD2F1 (CDF1) mice
Conditions: higher T/C = longer survival
Outline: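 Antitumor effect is scored in animals hosting a serially transplanted tumor. Values compare compound-dosed animals against vehicle-only controls as a simple quotient.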

[1] = T/C endpoint: mean survival time, dose: 400.0 mg/kg/injection, schedule: Q01DX001 (ip), vehicle: saline with Tween-80
[2] = T/C endpoint: mean survival time, dose: 200.0 mg/kg/injection, schedule: Q04DX002 (ip), vehicle: saline with Tween-80
[3] = T/C endpoint: mean survival time, dose: 400.0 mg/kg/injection, schedule: Q04DX002 (ip), vehicle: saline with Tween-80
[4] = T/C endpoint: mean survival time, dose: 400.0 mg/kg/injection, schedule: Q01DX009 (ip), vehicle: saline with Tween-80
[5] = T/C endpoint: mean survival time, dose: 400.0 mg/kg/injection, schedule: Q04DX003 (ip), vehicle: saline
[6] = T/C endpoint: median survival time, dose: 400.0 mg/kg/injection, schedule: Q01DX005 (ip), vehicle: saline with Tween-80
[7] = T/C endpoint: mean survival time, dose: 200.0 mg/kg/injection, schedule: Q01DX001 (ip), vehicle: saline
[8] = T/C endpoint: mean survival time, dose: 400.0 mg/kg/injection, schedule: Q01DX001 (ip), vehicle: saline
[9] = T/C endpoint: mean survival time, dose: 200.0 mg/kg/injection, schedule: Q04DX003 (ip), vehicle: saline with Tween-80
[10] = T/C endpoint: mean survival time, dose: 400.0 mg/kg/injection, schedule: Q04DX003 (ip), vehicle: saline with Tween-80
[11] = T/C endpoint: mean survival time, dose: 100.0 mg/kg/injection, schedule: Q04DX003 (ip), vehicle: saline with Tween-80

Compound: NC1CCCCC1N.O=C([O-])c1cc(S(=O)(=O)Nc2cc(S(=O)(=O)[O-])cc3cc(S(=O)(=O)[O-])cc(O)c23)ccc1[O-].[Pt+4]
- T/C (T/C endpoint: median survival time, dose: 0.78 mg/kg/injection, schedule: Q04DX003 (ip), vehicle: saline with Tween-80): 143 % of control
- survivor count (T/C endpoint: median survival time, dose: 12.5 mg/kg/injection, schedule: Q04DX003 (ip), vehicle: saline with Tween-80): 6 of 6
- survivor count (T/C endpoint: median survival time, dose: 25.0 mg/kg/injection, schedule: Q04DX003 (ip), vehicle: saline with Tween-80): 5 of 6
- survivor count (T/C endpoint: median survival time, dose: 50.0 mg/kg/injection, schedule: Q04DX003 (ip), vehicle: saline with Tween-80): 0 of 6
- survivor count (T/C endpoint: median survival time, dose: 100.0 mg/kg/injection, schedule: Q04DX003 (ip), vehicle: saline with Tween-80): 0 of 6
- survivor count (T/C endpoint: median survival time, dose: 200.0 mg/kg/injection, schedule: Q04DX003 (ip), vehicle: saline with Tween-80): 0 of 6

Compound: CCOC(=O)c1[nH]cnc1/N=N/N(C)CCO
- T/C (T/C endpoint: mean survival time, dose: 100.0 mg/kg/injection, schedule: Q01DX009 (ip), vehicle: saline with Tween-80): 138 % of control
- T/C (T/C endpoint: mean survival time, dose: 200.0 mg/kg/injection, schedule: Q01DX009 (ip), vehicle: saline with Tween-80): 144 % of control

Compound: CCC(C)(O)C(C)=O (stereo not given)
- survivor count (T/C endpoint: mean survival time, dose: 50.0 mg/kg/injection, schedule: Q01DX009 (ip), vehicle: Klucel (hydroxypropylcellulose) (HPC)): 2 of 3

Compound: CCOC(=O)C(C)(C)CN1COCC1(C)C
- survivor count [1]: 3 of 6

Compound: O=S1(=O)CCC2CCCCC2C1 (stereo not given)
- survivor count (T/C endpoint: mean survival time, dose: 50.0 mg/kg/injection, schedule: Q04DX003 (ip), vehicle: saline with Tween-80): 2 of 6

Compound: N#CCCN=C1C=CC(=C(c2ccc(NCCC#N)cc2)c2ccc(Cl)cc2Cl)C=C1
- survivor count [2]: 1 of 3
- survivor count [3]: 0 of 3

Compound: O=S(=O)(O)c1ccc2c(N=Nc3ccccc3[As](=O)(O)O)c(O)c(S(=O)(=O)O)cc2c1
- survivor count [4]: 5 of 6

Compound: N#CC1C2CCC(O2)C1C(=O)Oc1ccccc1 (stereo not given)
- survivor count [2]: 1 of 3
- survivor count [3]: 0 of 3

Compound: CN(C)N=C1CCC2(CC1)c1ccccc1-c1ccccc12
- survivor count (T/C endpoint: mean survival time, dose: 100.0 mg/kg/injection, schedule: Q01DX001 (ip), vehicle: saline with Tween-80): 6 of 6

Compound: Cc1ccc(C(C)C)c(OCC2=NCCN2C)c1
- survivor count [5]: 1 of 6

Compound: CN=NN(C)C(=O)NC
- T/C (T/C endpoint: median survival time, dose: 21.6 mg/kg/injection, schedule: Q01DX005 (ip), vehicle: saline): 132 % of control
- T/C (T/C endpoint: median survival time, dose: 25.0 mg/kg/injection, schedule: Q01DX005 (ip), vehicle: saline): 125 % of control
- T/C (T/C endpoint: median survival time, dose: 36.0 mg/kg/injection, schedule: Q01DX005 (ip), vehicle: saline): 146 % of control
- T/C (T/C endpoint: median survival time, dose: 50.0 mg/kg/injection, schedule: Q01DX005 (ip), vehicle: saline): 139 % of control
- T/C (T/C endpoint: median survival time, dose: 100.0 mg/kg/injection, schedule: Q01DX005 (ip), vehicle: saline): 137 % of control
- survivor count (T/C endpoint: median survival time, dose: 166.67 mg/kg/injection, schedule: Q01DX005 (ip), vehicle: saline): 6 of 6

Compound: CN1NC=Nc2c(SCc3ccccc3)ncnc21
- survivor count (T/C endpoint: mean survival time, dose: 150.0 mg/kg/injection, schedule: Q01DX001 (ip), vehicle: other): 0 of 6
- survivor count (T/C endpoint: mean survival time, dose: 300.0 mg/kg/injection, schedule: Q01DX001 (ip), vehicle: other): 0 of 6

Compound: CC#CCO
- survivor count [4]: 0 of 6

Compound: COc1cc(OC)c(/C=C/c2cc[n+](C)c3ccccc23)c(OC)c1
- survivor count (T/C endpoint: mean survival time, dose: 6.25 mg/kg/injection, schedule: Q01DX009 (ip), vehicle: saline): 0 of 3
- survivor count (T/C endpoint: mean survival time, dose: 12.5 mg/kg/injection, schedule: Q04DX002 (ip), vehicle: saline): 0 of 3
- survivor count (T/C endpoint: mean survival time, dose: 25.0 mg/kg/injection, schedule: Q04DX002 (ip), vehicle: saline): 0 of 3
- survivor count (T/C endpoint: mean survival time, dose: 100.0 mg/kg/injection, schedule: Q04DX002 (ip), vehicle: saline with Tween-80): 0 of 3
- survivor count [2]: 0 of 3
- survivor count [3]: 0 of 3

Compound: CCCCCC(CN(C)C)C(=O)/C=C/c1c(Cl)cccc1Cl (stereo not given)
- survivor count (T/C endpoint: mean survival time, dose: 200.0 mg/kg/injection, schedule: Q01DX001 (ip), vehicle: Klucel (hydroxypropylcellulose) (HPC)): 1 of 6
- survivor count (T/C endpoint: mean survival time, dose: 400.0 mg/kg/injection, schedule: Q01DX001 (ip), vehicle: Klucel (hydroxypropylcellulose) (HPC)): 0 of 6

Compound: CNc1ncn(-c2c(C)cccc2C)c(=O)n1
- survivor count (T/C endpoint: median survival time, dose: 200.0 mg/kg/injection, schedule: Q01DX005 (ip), vehicle: saline with Tween-80): 3 of 6
- T/C [6]: 130 [5 of 6 alive] and 139 % of control
- survivor count [6]: 5 of 6
- survivor count (T/C endpoint: median survival time, dose: 800.0 mg/kg/injection, schedule: Q01DX005 (ip), vehicle: saline with Tween-80): 0 of 6 (2×) and 2 of 6

Compound: CN1CCN(c2ccccc2)CC1
- survivor count [7]: 0 of 6
- survivor count [8]: 0 of 6

Compound: O=C(CBr)CC(=O)Nc1ccccc1
- survivor count [9]: 5 of 6

Compound: COc1cc2c(cc1OC)C(C)=NCC2
- survivor count (T/C endpoint: mean survival time, dose: 200.0 mg/kg/injection, schedule: Q04DX003 (ip), vehicle: saline): 0 of 6
- survivor count [5]: 0 of 6

Compound: CCOC(=O)Nc1cc(Cl)c2nnn(C(=O)OCC)c2n1
- survivor count (T/C endpoint: mean survival time, dose: 200.0 mg/kg/injection, schedule: Q01DX005 (ip), vehicle: water): 0 of 6

Compound: O=C(O)Cc1ccccc1C(=O)O.[NH-]C1CCCCC1[NH-].[Pt+2]
- T/C (T/C endpoint: median survival time, dose: 100.0 mg/kg/injection, schedule: Q04DX003 (ip), vehicle: saline): 125 and 130 % of control
- T/C (T/C endpoint: median survival time, dose: 200.0 mg/kg/injection, schedule: Q04DX003 (ip), vehicle: saline): 128 and 134 % of control

Compound: O=C([O][Sb]([O]C(=O)C(Cl)Cl)([c]1ccccc1)([c]1ccccc1)[c]1ccccc1)C(Cl)Cl
- survivor count [10]: 3 of 6

Compound: CC(=O)OCC1OC(OC(C)=O)C(On2nnc3c(-c4ccccc4)c(C)nn32)C(OC(C)=O)C1OC(C)=O (stereo not given)
- survivor count (T/C endpoint: median survival time, dose: 200.0 mg/kg/injection, schedule: Q01DX005 (ip), vehicle: Klucel (hydroxypropylcellulose) (HPC)): 0 of 6

Compound: N#CC(CC(=O)OCc1ccccc1)NC(=O)OCc1ccccc1 (stereo not given)
- survivor count [11]: 6 of 6

Compound: OCC1OC(n2cnc3c(SCc4ccccc4)ncnc32)C(O)C1O (stereo not given)
- T/C (T/C endpoint: mean survival time, dose: 88.0 mg/kg/injection, schedule: Q01DX009 (ip), vehicle: saline): 127 % of control
- T/C (T/C endpoint: mean survival time, dose: 176.0 mg/kg/injection, schedule: Q01DX001 (ip), vehicle: other): 127 % of control
- T/C (T/C endpoint: mean survival time, dose: 264.0 mg/kg/injection, schedule: Q01DX001 (ip), vehicle: other): 132 % of control
- T/C (T/C endpoint: mean survival time, dose: 300.0 mg/kg/injection, schedule: Q01DX009 (ip), vehicle: saline): 138 % of control [5 of 6 alive]
- survivor count (T/C endpoint: mean survival time, dose: 600.0 mg/kg/injection, schedule: Q01DX001 (ip), vehicle: other): 1 of 6

Compound: COc1cc2c(cc1Oc1c(O)c(OC)cc3c1C(C)N(C)CC3)C(C)N(C)CC2 (stereo not given)
- survivor count (T/C endpoint: mean survival time, dose: 150.0 mg/kg/injection, schedule: Q01DX001 (ip), vehicle: saline): 3 of 6
- survivor count (T/C endpoint: mean survival time, dose: 300.0 mg/kg/injection, schedule: Q01DX001 (ip), vehicle: saline): 0 of 6

Compound: CCCCC(C)C1(CCC)NC(C)(C)CC(C)O1 (stereo not given)
- survivor count [1]: 1 of 6

Compound: COc1ccc(OC)c(/C=C/c2ccc3ccccc3[n+]2C)c1
- survivor count (T/C endpoint: mean survival time, dose: 20.0 mg/kg/injection, schedule: Q01DX009 (ip), vehicle: saline with Tween-80): 3 of 6
- survivor count [11]: 0 of 6
- survivor count [9]: 0 of 6
- survivor count [10]: 0 of 6

Compound: C=CC12CCCC[N+]1(C)CCC2 (stereo not given)
- survivor count (T/C endpoint: mean survival time, dose: 100.0 mg/kg/injection, schedule: Q01DX001 (ip), vehicle: saline): 0 of 6
- survivor count [7]: 0 of 6
- survivor count [8]: 0 of 6
